Values quoted from earlier work in patent US12697331B2, “Methods of use of T-type calcium channel modulators” (PRAXIS PRECISION MEDICINES, INC., priority 2020, dated 2026).
Some of these results come from one statement about several compounds together.

Test system: essential tremor
Details: relatively short trials (average of less than 11 weeks); cited from earlier work

For `CCC1(c2ccccc2)C(=O)NCNC1=O` [primidone], the “Intolerability in essential tremor trials” value is listed as “more than 30%”.
For `CC1(C)O[C@@H]2[C@@H](CO[C@@]3(COS(N)(=O)=O)OC(C)(C)O[C@@H]23)O1` [topiramate], the “Intolerability in essential tremor trials” value is given as “more than 30%”.
